Percent effect of library compounds

The values are deposited in ChEMBL (CHEMBL3988442, “University of Dundee, Small-Polar-MMV Screening Library” (2021)).

Each number is a percent effect as filed. How 0% and 100% were set is not recorded. Most values in the screen are low, and negative values occur. The compounds are a random part of those screened. Two or more numbers in one place are separate tests of the same structure; such repeats can differ widely.

Mtb cholesterol medium: 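Whole-cell growth test on Mycobacterium tuberculosis, read after 4 days in a medium based on cholesterol and the lipid DPPC; the read-out is not stated. Concentration: 50 µM. Direction is inferred from retests: higher values go with more growth inhibition. Size under these conditions: about 69,000 compounds, about 370 of them at 50% or above in at least one test.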
Mtb glucose medium: 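Growth of Mycobacterium tuberculosis over 3 days (7H9 medium with glucose and tyloxapol); the read-out is not stated. Compounds at 50 µM. Higher reads as more growth inhibition (inferred: compounds with an IC50 in retests scored well above the rest). Of about 69,000 compounds tested this way, about 760 (1.1%) reached 50% or more in at least one test.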

SMILES | Mtb cholesterol medium | Mtb glucose medium
O=C(O)c1nn(CC2CC2)c2c1CN(S(=O)(=O)c1cccnc1)CC2 | 7.875 & -6.269 | 5.638
CN1CCC2(Cc3ccccc3CN(C(=O)Cc3cccc(Cl)c3)C2)C1 (stereo unspecified) | 5.716 | 14.36
Cc1nc(CN2CCOC(CNc3cccnn3)C2)cs1 (stereo unspecified) | -8.65 | 34.38
CNC(=O)NC(=O)COc1c(C(C)=O)ccc(Cl)c1Cl | 1.626 | 13.66
Cc1cc2nc(C(C)C)cc(N[C@H](C(N)=O)C(C)C)n2n1 | -39.11 | -22.54
COCCC1COC2(CCN(C(=O)C3CCCCC3)CC2)C1 (stereo unspecified) | -5.351 | 11.93
CCn1c(CN2CCCC2)nnc1C1CCN(Cc2ccc(C)o2)CC1 | -17.86 | -1.426
CCn1c(C)nnc1SCCNC(=O)CC1CCc2ccccc21 (stereo unspecified) | -12.2 | 2.188
Cl.Cl.c1cn(-c2cnc(C3CCNCC3)cn2)cn1 | 18.72 | 13.21
Cc1nc(CN2CCC3(CC2)CC(=O)N(C)c2ccccc23)cs1.O=C(O)C(F)(F)F | -8.231 | 0.08611 & -8.054
CCN(C)c1ccc(CNS(=O)(=O)C2CCOCC2)cc1F | -7.169 | 5.35
O=C(O)C(F)(F)F.[H][C@@]12CCCO[C@]1([H])[C@H](NC(=O)c1cnoc1C)CN(CCOCC)C2 | -8.808 | -1.163
CCC1COCCN1C(=O)NCc1nccn1CCc1ccccc1 (stereo unspecified) | -0.871 | 9.791
CC(C)(C)c1cnc(CN2C(=O)CC3(CCSC3)C2=O)o1 (stereo unspecified) | 12.02 | 21.05 & 40.41
c1cc(-c2nnc([C@H]3CCNC3)o2)ccn1 | 2.823 | 9.967 & 1.682
[H][C@@]12C[C@H](C)O[C@]1([H])CCN(C(=O)c1cccc3c1OCCO3)C2 | -23.62 | -10.93 & -28.37
COCc1cc(CC2(NC3CCCCC3)COC2)no1 | -11.56 | -1.156 & -15.38
CC(=O)N(Cc1ncc(C)o1)C1CCN(Cc2nccn2C)C1 (stereo unspecified) | -6.953 | 1.272
COc1ccccc1S(=O)(=O)CCOC(C)C | 0.178 | -0.546 & 12.86
CCOCC(O)CN1CCN(C(=O)c2ccc(C)nc2)CC1 (stereo unspecified) | -10.84 | -9.33
Cc1nc[nH]c1CN1CCCC12CCN(c1ccccn1)CC2 | -5.389 | -14.53
CC(C)CCC(=O)Nc1ccc2oc(=O)n(CCN(C)C)c2c1 | 4.159 & -5.982 | 18.34
CCc1ncnc(N2CCCC(c3cc(C(N)=O)[nH]n3)C2)c1F (stereo unspecified) | -5.839 & -26.27 | -2.871
N#Cc1ccccc1OCCN1CCN(C(=O)C2CCCC2)CC1 | 20.78 | 22.71
CSc1[nH]c(=O)c(C(=O)N2CCCC2c2cccs2)cc1C#N (stereo unspecified) | -2.537 | 1.061
CC(C)c1nnsc1CNC(=O)C1CCN(C(C)C)CC1 | -10.62 | 7.388
O=C1NCCCCC1NC(=O)C1(c2cccc(Cl)c2)CC1 (stereo unspecified) | 15.6 & -7.61 | 25.88
O=C(CNC(=O)C1CCCC1)NCC(O)c1ccc2ccccc2c1 (stereo unspecified) | -7.829 | -19.53
CS(=O)(=O)c1ccc(OCCCN2CCc3cncnc3C2)cc1 | -23.67 | -24.99
CN(C)S(=O)(=O)N1CCC(Oc2cnccn2)CC1 | 7.175 | 14.61
COCCN1Cc2ccccc2C2(CCN(C(=O)c3ccco3)CC2)C1 | -31.08 | -1.453
CNC(=O)c1cccc(CCNc2ccc(C#N)cn2)c1 | -11.87 | 5.826 & -23.76
COCCN1CCC2(COCc3cnc(N(C)C)nc32)C1.O=C(O)C(F)(F)F (stereo unspecified) | -17.3 | 1.468 & 6.623
O=C(O)C(F)(F)F.[H][C@@]12C[C@H](c3nc(C)no3)CN(Cc3ccc4c(c3)OCO4)[C@]1([H])CCO2 | 15.33 | 17.18
CN(C)C1CCN(C(=O)c2n[nH]c3c2CCN(CC2CCC2)C3)CC1 | -13.38 | -36.81
O=C(COCC1CC1)N1CCCC1c1nc(-c2ccccc2F)c[nH]1 (stereo unspecified) | 40.7 & -1.715 | -12.97
Cc1noc(C2CCCN(C(=O)c3cncc(Br)c3)C2)n1 (stereo unspecified) | 1.151 | 31.64
O=C(Nc1cnn(CCN2CCOCC2)c1)c1ccccc1O | -0.5435 | 9.724
[H][C@@]12CN(CC(C)C)C[C@]1(C(=O)NCC1CC1)CCCN2c1ncccn1 | 5.199 | 6.373
Cc1nc(C)c(CN2CCC(N(C)Cc3nnc(C4CC4)o3)C2)s1 (stereo unspecified) | -0.2026 | -2.728
Cc1nc(CC(=O)N2CCN(C)CC2c2ccccc2)cs1 (stereo unspecified) | -4.49 | 10.98 & -0.4382
CC(C)C1CN(c2cccc(C#N)n2)CCCN1Cc1ccc(F)cc1 (stereo unspecified) | 24.73 | 48.25 & 9.637
CC(C)(C)NC(=O)c1ccn(COc2c(Cl)cccc2Cl)n1 | -4.668 | -19.15
NC(=O)C1CN(C(=O)Nc2ccccc2SC2CCCC2)CCO1 (stereo unspecified) | 6.159 | -0.7431 & 6.4
CC(CN(C)C(=O)c1cn(C)nc1-c1ccc(F)cc1F)C(=O)O (stereo unspecified) | -12.32 & -8.928 | -48.19
Cc1cc(CNC(=O)N2CCN(C(C)c3cccnc3)CC2)c(C)o1 (stereo unspecified) | 7.861 | 7.736
Cc1cc(N(C)C)nc(N2CCn3c(nnc3C3CC3)C2)n1 | -10.04 | -32.93 & -7.299
CCC(=O)NCc1ccc(N2CCCCC2)cc1 | -16.61 | -36.17
CN(C)C(=O)C1CN(Cc2c[nH]cn2)CCN(C2CCOCC2)C1 (stereo unspecified) | -7.616 | 10.21
Cc1cc2nc(CO[C@H]3CN(C)C[C@H]3F)[nH]c2cc1C | -25.6 | -20.43 & 2.871
CN(C)C(CNC(=O)c1nc(N2CCOCC2)ncc1Cl)c1ccco1 (stereo unspecified) | -24.45 | -7.531
O=C(Cc1cccnc1)N1CCC2(CCN(CC3CCCCC3)C2)CC1.O=C(O)C(F)(F)F.O=C(O)C(F)(F)F | 2.311 | 21.53 & -7.22

The last 3 entries again:

SMILES,Mtb cholesterol medium,Mtb glucose medium
Cc1cc2nc(CO[C@H]3CN(C)C[C@H]3F)[nH]c2cc1C,-25.6,-20.43 & 2.871
CN(C)C(CNC(=O)c1nc(N2CCOCC2)ncc1Cl)c1ccco1 (stereo unspecified),-24.45,-7.531
O=C(Cc1cccnc1)N1CCC2(CCN(CC3CCCCC3)C2)CC1.O=C(O)C(F)(F)F.O=C(O)C(F)(F)F,2.311,21.53 & -7.22